Not every detail of the peptide structures is certain; ends, links or a residue may be inferred. For some of these results: At least one structure is not confirmed: it was looked up by name or label, or the drawing left a doubt. No end group written: not given here.
Experiments:
Type in all cases: biochemical
[1] = biological target: T1, Cdc2 (Homo sapiens, UniProt P06493); assay: kinase selectivity assay, CDC2; conditions: highest concentration tested 50 μM; 5 μM ATP
T1 construct: purchased Calbiochem

[2] = biological target: T2, PKA (Homo sapiens, UniProt P17612); assay: kinase selectivity assay, PKA; conditions: highest concentration tested 50 μM; 7.5 μM ATP
T2 construct: purchased Panvera

[3] = biological target: T3, Src (Homo sapiens, UniProt P12931); assay: kinase selectivity assay, Src; conditions: highest concentration tested 50 μM; 5 μM ATP
T3 construct: purchased Upstate Biotechnology

[4] = biological target: T4, PKCγ (Homo sapiens, UniProt P05129); assay: kinase selectivity assay, PKC gamma; conditions: highest concentration tested 50 μM; 10 μM ATP
T4 construct: purchased Calbiochem

[5] = biological target: T5, PKCδ (Homo sapiens, UniProt Q05655); assay: kinase selectivity assay, PKC delta; conditions: highest concentration tested 50 μM; 10 μM ATP
T5 construct: purchased Calbiochem

[6] = tested on: SGK; assay: kinase selectivity assay, SGK
From the text: Enzymes: Akt1 was expressed and purified using a baculoviral system. PKA was purchased from Panvera. CDC2, […] and PKC gamma were purchased from Calbiochem, and SGK and Src were purchased from Upstate Biotechnology (Charlottesvilee, Va.).
Substrates: All substrates were custom synthesized by Genemed Synthesis, Inc. (San Francisco, Calif.) except the Src substrate, which was purchased from Promega (cat#V6480). The substrates had the general structure of Biotin-Ahx-peptide. The Akt assay used […]. The PKA assay used kemptide LRRASLG. The CDC2 assay used PKTPKKAKKL. The SGK assay used RPRAATF. The PKC delta and gamma used neurogranin ERMRPRKRQGSVRRRV. Phosphotidylserine and dioleyl-sn-glycerol were purchased from Avanti Polar Lipids (Alabaster, Ala.). Strepavidin Flash Plates were purchased from Perkin Elmer Life Sciences (Boston, Mass.).
Turning to the kinase selectivity assays, all the enzymes other than Akt were tested in 25 mM Hepes buffer pH 7.4, 10 mM MgCl2, 0.1 mM Na3VO4, 0.5 mM DTT and 0.075 mg/ml Triton X-100. […] Reactions were transferred to Flash Plates, vortexed and incubated at room temperature for 10 min, then washed 3 times with phosphate buffered saline with 0.05% Tween 20 and counted on a TopCount Packard Instruments gamma counter (Packard Instruments, Boston, Mass.). IC50s were calculated using the Assay Explorer software, sigmoidal curve fit by MDL.

[7] = biological target: T6, Akt1 (Homo sapiens, UniProt P31749); assay: in vitro Akt1 kinase assay with biotinylated Bad-derived peptide substrate; conditions: FIG. 3
T6 construct: made in house; host or cells: baculovirus / insect cells

Compound | Ki [1] | Ki [2] | Ki [3] | Ki [4] | Ki [5] | selectivity over SGK (in words) ([6]; Akt versus SGK) | Ki ([6]; highest concentration tested 50 μM, 10 μM ATP) | relative potency of Akt1 inhibition (in words) [7]
CC(C)C[C@H](NC(=O)[C@H](CCC(=O)O)NC(=O)[C@@H](N)C(C)C)C(=O)N[C@@H](CC(=O)O)C(=O)N1CCC[C@H]1C(=O)N[C@@H](CCC(=O)O)C(=O)N[C@@H](Cc1ccccc1)C(=O)N[C@@H](CCC(=O)O)C(=O)N1CCC[C@H]1C(=O)N[C@@H](CCCNC(=N)N)C(=O)N[C@@H](C)C(=O)N[C@@H](CCCNC(=N)N)C(=O)N[C@@H](CCC(=O)O)C(=O)N[C@@H](CCCNC(=N)N)C(=O)N[C@H](C(=O)N[C@@H](Cc1ccc(O)cc1)C(=O)N[C@@H](CO)C(=O)N[C@@H](Cc1ccccc1)C(=O)NCC(=O)N[C@@H](Cc1c[nH]cn1)C(=O)O)[C@@H](C)O [Peptide 1] | > 33 µM | > 34 µM | > 33 µM | > 30 µM | > 42 µM |  |  | 
VELDPEFEPRARERAYAFGH [Peptide 4] | > 33 µM | > 34 µM | > 33 µM | > 30 µM | > 42 µM | significant selectivity over SGK | 12.5 µM | as potent as peptide 2
